PubChem BioAssay AID504791 | Drosophila RNAi Screening Center | 2011
The screen tested about 23,000 reagents; this is a random part of those that have a named target and a result. Of all reagents, 199 (0.86%) are marked active. 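Plate-scaled ratios behind the calls are not deposited; printed light signals are raw; many rows marked increased or decreased are still called inactive.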 Entries without a mark were called inactive. The record does not give: the direction of the score.

Purpose: 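Genes of the fly required for silencing by miRNA, siRNA or endo-siRNA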 (primary screen)
System: Drosophila S2-derived reporter cells
Knock-down reagent: long dsRNA against Drosophila genes, about 150-250 ng dsRNA per well (siRNA assay); about 80-120 ng (miRNA assay)
Duration: about 5 days (siRNA assay); about 4 days (miRNA assay)
Challenge: copper sulfate induction of reporters: 25 µM (siRNA assay); 200 mM stated (miRNA assay), 1-2 days before reading
Measured: 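Per-well ratio of Renilla over firefly light, expressed relative to that plate's average ratio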
Hit rule: 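a well was a first-pass pick when its plate-scaled ratio rose above 1.5 (siRNA assay) or 1.6 (miRNA assay), or dropped below 0.6; a gene counted only if two separate dsRNAs agreed on retest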

Target gene | dsRNA | stable assay Renilla, run 1 (luminescence) | stable assay firefly, run 1 (luminescence)
AANATL4 | DRSC06774 | 6763 | 2.68e5
CG32801 | DRSC17964 | 5935 | 3.19e5
CG13876 | DRSC08346 | 6439 | 3.75e5
CG17715 | DRSC11950 | 8633 | 6.73e5
CG15450 | DRSC20522 | 4199 | 3.04e5
CG11723 | DRSC00324 | 9705 | 4.12e5
PVRAP | DRSC09966 | 5367 | 3.64e5
PVRAP | DRSC10577 | 7078 | 6.13e5
CG12783 | DRSC14538 | 7550 | 4.94e5
H2.0 | DRSC03340 | 3927 | 3.15e5
H2.0 | DRSC22555 | 5251 | 5.32e5
Obp99b | DRSC16264 | 6722 | 3.84e5
mRpL9 | DRSC15678 | 5787 | 3.53e5
LManI | DRSC02838 | 6646 | 3.57e5
Topors | DRSC06531 | 8518 | 4.78e5
Pex12 | DRSC00622 | 7649 | 3.69e5
RIOK2 | DRSC14413 | 7487 | 3.50e5
PolE4 | DRSC04105 | 6623 | 4.36e5
CG4896 | DRSC00671 | 32456 | 4.00e5
CG17169 | DRSC20905 | 5354 | 4.40e5
CG14120 | DRSC10124 | 6979 | 4.37e5
CG15756 | DRSC19721 | 5152 | 3.99e5
CG9132 | DRSC20159 | 7406 | 4.92e5
CG3081 | DRSC18571 | 5892 | 3.17e5
CG4480 | DRSC02750 | 8169 | 5.73e5
CG13653 | DRSC14653 | 7038 | 3.34e5
ARY (retired record) | DRSC20867 | 3487 | 3.85e5
Fs | DRSC06258 | 10865 | 4.35e5
Fs | DRSC06259 | 5839 | 2.34e5
CG7724 | DRSC10905 | 10377 | 4.95e5
Nrd1 | DRSC19830 | 8036 | 3.80e5
CG7810 | DRSC03072 | 35238 | 4.62e5
Rrp47 | DRSC20124 | 6703 | 4.00e5
Had1 | DRSC20216 | 4694 | 3.14e5

Already shown: an excerpt of the list.
Target gene | dsRNA | stable assay Renilla, run 1 (luminescence) | stable assay firefly, run 1 (luminescence)
CG13876 | DRSC08346 | 6439 | 3.75e5
CG17715 | DRSC11950 | 8633 | 6.73e5
CG15450 | DRSC20522 | 4199 | 3.04e5
CG11723 | DRSC00324 | 9705 | 4.12e5
PVRAP | DRSC09966 | 5367 | 3.64e5
